Experimental data reported in patent publication US20100210819A1, “Biosensors to measure InsP3 concentration in living cells” (priority 2006, published 2010).

Experiments:
[1] = system: adult cat ventricular myocytes; assay: Acceptor (YFP) photobleach in adult cat ventricular myocytes expressing FIRE-1; type: cell-based
COS-1 cells = assay: Acceptor (YFP) photobleach in COS-1 cells expressing FIRE-1 and FIRE-3; type: cell-based

## FIRE-1: FRET biosensor: type-1 InsP3R ligand binding domain (589 residues) fused amino-terminally with CFP and carboxyl-terminally with YFP
[1]; cell dialyzed with 10 μM InsP3, 41% bleach of YFP
  increase of CFP fluorescence after YFP photobleach, example cell: 13%
[1]; high [InsP3]i, cells internally perfused with 10 μM InsP3
  mean increase of CFP fluorescence after YFP photobleach: 11.8±1.2%
[1]; intact adult myocyte, YFP photobleach by 47%
  increased CFP fluorescence after YFP photobleach, example cell: 8%
[1]; intact adult myocytes
  mean increase of CFP fluorescence after YFP photobleach: 5.4±1.0%
COS-1 cells; COS-1 cells, before [InsP3] increases
  basal extent of FRET, corrected for incomplete YFP photobleach: about 22.6±2.1%
COS-1 cells; COS-1 cells, n=8, mean YFP photobleach 58.2% (FIRE-1), 54.9% (FIRE-3)
  mean increased CFP fluorescence after YFP photobleach: 8.9±1.3%
COS-1 cells; a COS-1 cell, 58% decrease in YFP fluorescence
  increase of CFP donor fluorescence after partial YFP photobleach, single cell: 12%
